According to PubChem BioAssay AID328 (DTP/NCI, 2004):
The list shows only some results of the screen, not a fair sample: it gathers tests that were run many times, whatever their T/C, doses with no T/C, and many T/C values between a quarter and a half above the control. Other doses and runs of a compound stand elsewhere. T/C gives the treated animals as a percentage of the vehicle group. Some entries give survivors of the animals treated and no T/C: the source holds a T/C of zero for them, seemingly a mark for toxic or unscored doses. Some doses without a T/C left all or most animals alive at the check, yet need not have been tolerated: the source hardly ever lists a survival T/C far under the control, and the zero likely stands for such cases as well. Survivors were counted at the toxicity check, usually on the fifth day, unless a day is given; later deaths do not show. Schedules are NCI's codes, read here as Q, the interval in days (D) or hours (H), X, the number of doses. Some entries were tested several times; their values stand side by side, smallest first. For survival time, the PubChem record calls one and a half times the control and up active, and a quarter to a half above the control has no call in these data; cut-offs in other NCI protocols can differ.

Tested on: BDF1 mice, P388 leukemia ip, median survival T/C
Assay: NCI In Vivo Anticancer Drug Screen. Data for tumor model P388 Leukemia (intraperitoneal) in B6D2F1 (BDF1) mice
Conditions: T/C endpoint: median survival time, higher T/C = longer survival
Summary of the method: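 Compound-treated tumour-bearing mice were compared with vehicle-treated controls. Survival was recorded, and the value is the treated-group measurement divided by the control-group measurement (T/C).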

[1] = dose: 12.5 mg/kg/injection, schedule: Q01DX009 (ip), vehicle: saline

**Q.** For `Cn1cnc([N+](=O)[O-])c1Cl`, which survivor count (dose: 200.0 mg/kg/injection, schedule: Q01DX005 (ip), vehicle: saline) is on record?
**A.** 4 of 6

**Q.** What about the survivor count (dose: 400.0 mg/kg/injection, schedule: Q04DX003 (ip), vehicle: saline) of the same compound?
**A.** 2 of 6

**Q.** What does the source list for `O=C1C=C(C2OC(CO)C(O)C2O)C(=O)N1` (configuration not stated)?
**A.** T/C (dose: 1.0 mg/kg/injection, schedule: Q01DX010 (ip), vehicle: saline): 130 % of control; T/C (dose: 1.5 mg/kg/injection, schedule: Q01DX001 (ip), vehicle: saline): 130 % of control; T/C (dose: 2.0 mg/kg/injection, schedule: Q01DX010 (ip), vehicle: saline): 145 and 147 % of control; survivor count (dose: 16.0 mg/kg/injection, schedule: Q01DX010 (ip), vehicle: saline): 3 of 6 and 5 of 6; survivor count (dose: 25.0 mg/kg/injection, schedule: Q01DX001 (ip), vehicle: saline): 0 of 6; survivor count (dose: 32.0 mg/kg/injection, schedule: Q01DX010 (ip), vehicle: saline): 0 of 6; survivor count (dose: 50.0 mg/kg/injection, schedule: Q01DX001 (ip), vehicle: saline): 0 of 6; survivor count (dose: 100.0 mg/kg/injection, schedule: Q01DX001 (ip), vehicle: saline): 0 of 6; survivor count (dose: 200.0 mg/kg/injection, schedule: Q01DX001 (ip), vehicle: saline): 0 of 6

**Q.** How did the T/C (dose: 100.0 mg/kg/injection, schedule: Q04DX003 (ip), vehicle: saline with Tween-80) turn out when `CS(=O)(=O)OCCN(CCOS(C)(=O)=O)c1cccc(C(F)(F)F)c1` was run?
**A.** 131 % of control

**Q.** What about the survivor count (dose: 200.0 mg/kg/injection, schedule: Q04DX003 (ip), vehicle: saline with Tween-80) of the same compound?
**A.** 6 of 6

**Q.** And the survivor count (dose: 400.0 mg/kg/injection, schedule: Q04DX003 (ip), vehicle: saline with Tween-80)?
**A.** 4 of 6

**Q.** How did the survivor count (dose: 100.0 mg/kg/injection, schedule: Q01DX009 (ip), vehicle: Klucel (hydroxypropylcellulose) (HPC)) turn out when `CCCCC(=O)c1cc(OC)cc(OC)c1` was run?
**A.** 6 of 6

**Q.** With `O=P1(NCCCl)OCCCN1CCCl` (configuration not stated) as the compound, how does the T/C [1] read?
**A.** 131 % of control

**Q.** And the T/C (dose: 50.0 mg/kg/injection, schedule: Q01DX009 (ip), vehicle: saline)?
**A.** 129 % of control

**Q.** And the T/C (dose: 100.0 mg/kg/injection, schedule: Q01DX009 (ip), vehicle: water)?
**A.** 139 % of control

**Q.** What about the survivor count (dose: 400.0 mg/kg/injection, schedule: Q01DX009 (ip), vehicle: water) of the same compound?
**A.** 4 of 10

**Q.** How did the survivor count (dose: 0.5 mg/kg/injection, schedule: Q01DX009 (ip), vehicle: saline) turn out when `COc1c2c([n+](C)c3c(OC)cccc13)OC(C(C)C)C2` (configuration not stated) was run?
**A.** 2 of 6

**Q.** And the survivor count (dose: 1.0 mg/kg/injection, schedule: Q01DX009 (ip), vehicle: saline)?
**A.** 0 of 6 and 5 of 6

**Q.** And the survivor count (dose: 2.0 mg/kg/injection, schedule: Q01DX009 (ip), vehicle: Klucel (hydroxypropylcellulose) (HPC))?
**A.** 6 of 6

**Q.** And the survivor count (dose: 5.6 mg/kg/injection, schedule: Q04DX003 (ip), vehicle: saline)?
**A.** 0 of 6

**Q.** And the survivor count (dose: 8.4 mg/kg/injection, schedule: Q04DX003 (ip), vehicle: saline)?
**A.** 0 of 6

**Q.** Which results are given for `Fc1ccc(NC(=S)S)cc1`?
**A.** survivor count (dose: 6.25 mg/kg/injection, schedule: Q01DX009 (ip), vehicle: saline): 6 of 6; survivor count [1]: 6 of 6; survivor count (dose: 25.0 mg/kg/injection, schedule: Q01DX009 (ip), vehicle: saline): 6 of 6
